{"sequences": {"note": "Sequences of proteins named here, by UniProt entry; tags and fusion partners are left off. Residues count along the entry.", "UniProt Q15116, residues 21-167": "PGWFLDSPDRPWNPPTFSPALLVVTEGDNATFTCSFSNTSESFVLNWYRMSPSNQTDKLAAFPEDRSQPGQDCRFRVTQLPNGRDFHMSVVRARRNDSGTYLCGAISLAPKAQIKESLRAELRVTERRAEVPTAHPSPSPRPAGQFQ"}, "source": "patent CN106046162A", "binders": {"B1": {"name": "抗人PD-1单克隆抗体2-189-H-1 (antibody, V domains shown)", "VH": "QVQLKESGPGLVAPSQSLSITCTVSGFSLTTYGVSWVRQPPGKGLEWLGVIWGDGSTDYHSVLISRLSITKDISKSQVFLKLNSLQSDDTATYYCAQQGSRGDYWGQGTTLTVSS", "VL": "DVLLTQTPLSLPVSLGDQASISCRSSQTIVHSNGITYLEWYLQKPGQSPKALISKVSNRLSGVPDRFSGSGSGTDFTLKISRVEAEDLGVYYCFQGSHIPYTFGGGTKLEIK"}}, "biological_target": "人PD-1-Fc重组蛋白(RD) (human) (UniProt Q15116)", "experiment": "ELISA", "note": "No constants are given. Whether binding was seen depends on the method and setting. Some results given as binding are weak or reduced against the parent protein; the word gives no strength.", "data": [{"binder": "B1", "values": [{"measurement": "binding", "result": "binds"}]}]}
